From publication PMC6123728
These are yes or no findings as the source states them, for the method shown. For some assays here: In cells and extracts the contact can be indirect. Some entries that bind do so weakly or less than the wild type. Sequences can lack the tags named with a protein.

The chains behind the UniProt entries cited, without tags or fusion partners.
UniProt P33242: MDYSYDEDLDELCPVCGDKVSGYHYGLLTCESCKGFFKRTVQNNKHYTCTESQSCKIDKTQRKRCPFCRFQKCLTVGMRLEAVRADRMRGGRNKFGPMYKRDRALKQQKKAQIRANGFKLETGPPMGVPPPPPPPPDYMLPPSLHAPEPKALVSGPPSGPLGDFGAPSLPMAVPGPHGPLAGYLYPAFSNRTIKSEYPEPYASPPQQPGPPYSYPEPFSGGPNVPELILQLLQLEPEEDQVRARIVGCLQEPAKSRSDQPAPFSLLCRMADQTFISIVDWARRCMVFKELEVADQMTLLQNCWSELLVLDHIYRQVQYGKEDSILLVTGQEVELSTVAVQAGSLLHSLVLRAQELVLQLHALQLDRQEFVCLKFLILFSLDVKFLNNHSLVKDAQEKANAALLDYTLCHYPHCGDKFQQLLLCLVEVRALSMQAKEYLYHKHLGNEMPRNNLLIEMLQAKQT

T1: FLAG-SREBP-2 (1-481) (UniProt Q12772)
T1 sequence: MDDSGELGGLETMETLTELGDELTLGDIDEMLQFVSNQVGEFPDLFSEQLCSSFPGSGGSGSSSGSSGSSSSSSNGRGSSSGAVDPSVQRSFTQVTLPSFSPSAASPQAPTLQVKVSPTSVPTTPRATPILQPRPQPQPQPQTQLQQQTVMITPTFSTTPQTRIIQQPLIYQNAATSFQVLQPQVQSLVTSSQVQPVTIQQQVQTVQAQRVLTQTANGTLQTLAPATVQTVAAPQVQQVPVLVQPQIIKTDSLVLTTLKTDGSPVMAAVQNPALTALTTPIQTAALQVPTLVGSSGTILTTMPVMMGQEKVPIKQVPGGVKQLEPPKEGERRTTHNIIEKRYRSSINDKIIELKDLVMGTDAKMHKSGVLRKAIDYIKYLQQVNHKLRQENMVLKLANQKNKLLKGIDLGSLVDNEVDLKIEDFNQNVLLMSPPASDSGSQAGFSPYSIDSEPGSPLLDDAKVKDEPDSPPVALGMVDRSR


Key:
FLAG-SREBP-2 (1-481) = target: T1, FLAG-SREBP-2 (1-481); assay: pull-down; purified FLAG-SREBP-2 (300 ng) incubated overnight at 4 °C with Y-1 nuclear extract in 1 ml binding buffer (50 mM HEPES-KOH pH 7.4, 150 mM NaCl, 1 mM EDTA, 0.1% NP-40); immunoprecipitated with anti-FLAG magnetic beads; washes with 150 and 300 mM NaCl; eluted with FLAG peptide; western blot for Ad4BP/SF-1, FLAG, CREB; only the target purified
FLAG-Ad4BP/SF-1 = FLAG-Ad4BP/SF-1 (UniProt P33242); assay: co-IP; in vitro binding assay: purified HA-SREBP-2 (1-481) (300 ng) and FLAG-Ad4BP/SF-1 (300 ng) incubated overnight at 4 °C in 1 ml binding buffer (50 mM HEPES-KOH pH 7.4, 150 mM NaCl, 1 mM EDTA, 0.1% NP-40); immunoprecipitated with anti-FLAG antibody; western blot with anti-HA or anti-FLAG; both …

binding (FLAG-SREBP-2 (1-481)) | binding (FLAG-Ad4BP/SF-1) | Molecule
binds | – | Ad4BP/SF-1 (NR5A1), endogenous in Y-1 cell nuclear extract (from UniProt P33242 1-462)
– | binds | HA-SREBP-2 (1-481) (domain or fragment, UniProt Q12772 1-481) MDDSGELGGLETMETLTELGDELTLGDIDEMLQFVSNQVGEFPDLFSEQLCSSFPGSGGSGSSSGSSGSSSSSSNGRGSSSGAVDPSVQRSFTQVTLPSFSPSAASPQAPTLQVKVSPTSVPTTPRATPILQPRPQPQPQPQTQLQQQTVMITPTFSTTPQTRIIQQPLIYQNAATSFQVLQPQVQSLVTSSQVQPVTIQQQVQTVQAQRVLTQTANGTLQTLAPATVQTVAAPQVQQVPVLVQPQIIKTDSLVLTTLKTDGSPVMAAVQNPALTALTTPIQTAALQVPTLVGSSGTILTTMPVMMGQEKVPIKQVPGGVKQLEPPKEGERRTTHNIIEKRYRSSINDKIIELKDLVMGTDAKMHKSGVLRKAIDYIKYLQQVNHKLRQENMVLKLANQKNKLLKGIDLGSLVDNEVDLKIEDFNQNVLLMSPPASDSGSQAGFSPYSIDSEPGSPLLDDAKVKDEPDSPPVALGMVDRSR
